Laboratory results from article doi:10.1101/2025.02.04.636395, “Identification of a RAB32-LRMDA-Commander membrane trafficking complex reveals the molecular mechanism of human oculocutaneous albinism type 7” (bioRxiv, 2025).

What was measured:
GFP-LRMDA(L226G) (human) = target: T1, GFP-LRMDA(L226G) (human); test: affinity purification with mass spectrometry; GFP-trap from lysates of stably transduced RPE1 cells; TMT proteomics; GFP-LRMDA against GFP, mutants against wild-type GFP-LRMDA
T1 sequence: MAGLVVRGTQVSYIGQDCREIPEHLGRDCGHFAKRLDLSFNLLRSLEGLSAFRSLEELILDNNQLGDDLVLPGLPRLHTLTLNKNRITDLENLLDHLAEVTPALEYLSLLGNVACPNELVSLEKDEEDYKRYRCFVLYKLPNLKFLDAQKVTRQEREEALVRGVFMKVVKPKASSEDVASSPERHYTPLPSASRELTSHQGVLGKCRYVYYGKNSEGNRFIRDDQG

GFP-LRMDA (human) [1] = target: T2, GFP-LRMDA (human); test: as above
T2 sequence: T1 sequence with G226L

GFP-LRMDA F145D (human) = target: T3, GFP-LRMDA F145D (human); test: as above
T3 sequence: T1 sequence with F145D, G226L

GFP-LRMDA (human) [2] = target: T2, GFP-LRMDA (human); test: affinity purification with mass spectrometry; GFP-trap from lysates of stably transduced MNT1 cells (GFP-LRMDA or GFP-VPS26C against GFP); TMT proteomics
[3] = target: T4, GFP-LRMDA (human), A0A087; test: affinity purification with mass spectrometry; GFP-trap from lysates of stably transduced RPE1 cells; TMT proteomics; GFP-LRMDA against GFP, mutants against wild-type GFP-LRMDA; settings: remark: other sources report otherwise
T4 chain: T1 sequence with G226L

[4] = target: T4, GFP-LRMDA (human), A0A087; test: affinity purification with mass spectrometry; GFP-trap from lysates of stably transduced MNT1 cells (GFP-LRMDA or GFP-VPS26C against GFP); TMT proteomics; settings: remark: other sources report otherwise

B1: recombinant RAB32 (natural protein, human, UniProt Q13637 1-225, looked up)
chain: MAGGGAGDPGLGAAAAPAPETREHLFKVLVIGELGVGKTSIIKRYVHQLFSQHYRATIGVDFALKVLNWDSRTLVRLQLWDIAGQERFGNMTRVYYKEAVGAFVVFDISRSSTFEAVLKWKSDLDSKVHLPNGSPIPAVLLANKCDQNKDSSQSPSQVDQFCKEHGFAGWFETSAKDNINIEEAARFLVEKILVNHQSFPNEENDVDKIKLDQETLRAENKSQCC
notes: RAB32, human; synthetic gene codon-optimised for S. frugiperda; also called tag-less RAB32; purified RAB32; source: Sf21 insect cells (baculovirus), purified (Glutathione Sepharose, TEV cleavage); not shown: GST, N-terminal, cleaved
- binding (GFP-LRMDA(L226G) (human)): binds
- binding (GFP-LRMDA (human) [1]): binds
- binding (GFP-LRMDA F145D (human)): no binding
- binding (GFP-LRMDA (human) [2]): binds

B2: RAB38 (endogenous), P57729 1-211 (protein)
chain: MQAPHKEHLYKLLVIGDLGVGKTSIIKRYVHQNFSSHYRATIGVDFALKVLHWDPETVVRLQLWDIAGQERFGNMTRVYYREAMGAFIVFDVTRPATFEAVAKWKNDLDSKLSLPNGKPVSVVLLANKCDQGKDVLMNNGLKMDQFCKEHGFVGWFETSAKENINIDEASRCLVKHILANECDLMESIEPDVVKPHLTSTKVASCSGCAKS
- binding [3]: no binding
- binding [4]: no binding

Changes are numbered by the printed parent chain. No constants are given. Whether binding was seen depends on the method and setting. Binding seen in cells or lysates may run through a third protein. A yes stands for co-enrichment or nearness to the bait. Other partners may have been found. For part of these data: A no says only that the protein was not detected with the bait. Tags and fused reporters may be left off the sequences shown.
